The other results are listed elsewhere or left out.

Some test systems named below: ODAM (human); OGN (human); OGT (human); OPA1 (human); OPA3 (human); OR4D6 (human); ORM1 (human); ORM2 (human); OSBPL1A (human); OSTbeta (human); OTUB1 (human); OTUB2 (human); Optineurin (human); P2RX1 (human); P2RXL1 (human); PAFAH1B2 (human).
Holding throughout (experiment): protein microarray (ProtoArray v5.0), streptavidin-Alexa Fluor 647
Common to all, as to conditions: 3'-biotin; 20 mM Tris (pH 7.5), 5 mM MgCl2, 100 mM KCl, 0.1% Tween-20, A/T-rich and random oligonucleotide blockers; temperature not stated; high values mean tight binding

Assay [1] deals with Nuclear receptor-binding protein (human).
In assay [2] the test system is Nucleotide-binding protein 1 (human).
In assay [3] the test system is Olfactory receptor 3A1 (human).
Assay [4] relates to Ornithine decarboxylase (human).

As to “GGGGACAGGGGTATGGGGAGGGG [G4-3 biotinylated (CtG)]”, the binding signal was -0.325 z-score in assay [1]; -0.293 z-score in [2]; -0.334 z-score in the assay with ODAM (human); -0.326 z-score in the assay on OGN (human); -0.342 z-score in the assay on OGT (human); -0.281 z-score in the assay on OPA1 (human). Besides, the binding signal in the assay on OPA3 (human) is -0.304 z-score; in the assay on OR4D6 (human), -0.318 z-score; with ORM1 (human), -0.329 z-score; in the assay on ORM2 (human), -0.326 z-score; in the assay on OSBPL1A (human), -0.33 z-score; in the assay with OSTbeta (human), -0.329 z-score. In addition, the binding signal is -0.295 z-score in the assay with OTUB1 (human); -0.33 z-score with OTUB2 (human); -0.334 z-score in assay [3]; -0.333 z-score in the assay with Optineurin (human); -0.323 z-score in [4]; -0.318 z-score with P2RX1 (human). Besides, the results for the binding signal in the assay on P2RXL1 (human) and in the assay on PAFAH1B2 (human) were -0.321 z-score and -0.339 z-score, respectively.

For the origin of these results see PMC5996148.
